Some of the results follow. Residues, ends and D or L forms follow the SMILES beside them. *: point of attachment. Cbz = O=C(OCc1ccccc1)*
Key:
Experiment in all cases: log2 fold change, soluble protein after heating vs DMSO (PISA); higher = thermal stabilisation; K562 cells, 10 uM, 30 min; active = over 0.2 and 3.5 SD of the protein, either way, in both replicates (recomputed)
[1] = compound: C#Cc1cccc(Nc2ncnc3cc(OCCOC)c(OCCOC)cc23)c1 [erlotinib]
Method in brief: (§1)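 K562 cells at 2×10^6 cells/mL were treated with 10 μM compound for 30 min. Aliquots were heated for 3 min across 48°C-58°C, pooled, and extracted in PBS with 0.5% NP-40 at 4°C; soluble protein was the supernatant after 21,000xg for 90 min. Soluble protein was quantified by TMTpro 16plex LC-MS/MS with channel sums equalised, and reported as log2 fold change in thermal stability against DMSO controls, with values from duplicates.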

The chains behind the UniProt entries cited, without tags or fusion partners. Where a name states a change or a piece, a line headed by the entry shows the natural chain unless it says otherwise.
UniProt O43399: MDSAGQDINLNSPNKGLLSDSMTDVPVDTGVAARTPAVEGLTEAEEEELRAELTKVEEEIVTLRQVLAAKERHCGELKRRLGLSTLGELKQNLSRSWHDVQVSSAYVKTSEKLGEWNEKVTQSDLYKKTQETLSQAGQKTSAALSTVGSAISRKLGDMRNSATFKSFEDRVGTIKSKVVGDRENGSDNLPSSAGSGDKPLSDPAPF
UniProt Q15643: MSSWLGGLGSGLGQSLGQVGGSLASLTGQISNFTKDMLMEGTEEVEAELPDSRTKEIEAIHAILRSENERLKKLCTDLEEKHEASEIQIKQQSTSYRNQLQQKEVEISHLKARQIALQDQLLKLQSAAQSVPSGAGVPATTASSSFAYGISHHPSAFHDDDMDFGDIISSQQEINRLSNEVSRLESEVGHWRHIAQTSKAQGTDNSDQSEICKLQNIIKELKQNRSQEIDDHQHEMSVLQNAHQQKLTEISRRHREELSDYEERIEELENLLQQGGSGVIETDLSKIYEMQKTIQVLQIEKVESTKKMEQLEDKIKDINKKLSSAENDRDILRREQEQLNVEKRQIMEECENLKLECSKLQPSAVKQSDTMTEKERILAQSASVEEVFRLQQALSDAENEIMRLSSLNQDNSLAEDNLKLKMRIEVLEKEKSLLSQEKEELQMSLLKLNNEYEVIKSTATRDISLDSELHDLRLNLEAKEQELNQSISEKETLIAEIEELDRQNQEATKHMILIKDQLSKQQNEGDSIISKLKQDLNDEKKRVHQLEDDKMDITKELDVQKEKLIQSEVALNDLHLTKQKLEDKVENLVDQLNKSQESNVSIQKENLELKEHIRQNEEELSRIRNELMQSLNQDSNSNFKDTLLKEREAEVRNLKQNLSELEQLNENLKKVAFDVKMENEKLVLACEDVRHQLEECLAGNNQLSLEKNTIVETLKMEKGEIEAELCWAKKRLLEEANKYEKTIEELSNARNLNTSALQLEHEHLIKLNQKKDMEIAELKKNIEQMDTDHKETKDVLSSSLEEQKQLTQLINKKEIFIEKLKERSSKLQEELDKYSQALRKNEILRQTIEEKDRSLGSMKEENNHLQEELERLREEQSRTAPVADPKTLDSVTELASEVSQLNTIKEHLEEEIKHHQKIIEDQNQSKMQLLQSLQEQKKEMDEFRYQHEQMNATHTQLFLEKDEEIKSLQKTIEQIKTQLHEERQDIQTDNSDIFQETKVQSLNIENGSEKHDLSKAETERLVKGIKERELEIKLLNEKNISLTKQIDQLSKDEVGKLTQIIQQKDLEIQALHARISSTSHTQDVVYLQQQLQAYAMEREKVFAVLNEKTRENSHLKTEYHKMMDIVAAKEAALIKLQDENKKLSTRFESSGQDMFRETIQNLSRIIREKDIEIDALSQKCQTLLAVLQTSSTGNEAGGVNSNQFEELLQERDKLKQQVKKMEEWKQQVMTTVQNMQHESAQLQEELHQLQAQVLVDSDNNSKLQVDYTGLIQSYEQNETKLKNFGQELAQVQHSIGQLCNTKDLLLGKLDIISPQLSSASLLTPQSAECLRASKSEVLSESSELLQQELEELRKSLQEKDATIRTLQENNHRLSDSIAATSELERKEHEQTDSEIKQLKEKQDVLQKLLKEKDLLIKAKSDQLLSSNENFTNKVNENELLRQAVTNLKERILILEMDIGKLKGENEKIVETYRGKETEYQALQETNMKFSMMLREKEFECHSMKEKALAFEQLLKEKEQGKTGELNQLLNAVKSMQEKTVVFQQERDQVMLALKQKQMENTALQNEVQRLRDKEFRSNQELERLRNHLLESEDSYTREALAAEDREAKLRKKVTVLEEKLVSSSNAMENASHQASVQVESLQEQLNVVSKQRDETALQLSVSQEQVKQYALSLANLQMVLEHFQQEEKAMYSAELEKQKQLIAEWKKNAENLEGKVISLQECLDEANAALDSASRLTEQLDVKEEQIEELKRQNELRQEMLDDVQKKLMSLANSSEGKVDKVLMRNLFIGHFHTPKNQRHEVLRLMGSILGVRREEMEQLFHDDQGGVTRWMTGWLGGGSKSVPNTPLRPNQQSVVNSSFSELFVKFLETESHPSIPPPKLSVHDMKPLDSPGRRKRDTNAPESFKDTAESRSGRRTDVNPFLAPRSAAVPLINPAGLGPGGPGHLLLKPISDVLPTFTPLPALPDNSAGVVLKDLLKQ
UniProt O14657: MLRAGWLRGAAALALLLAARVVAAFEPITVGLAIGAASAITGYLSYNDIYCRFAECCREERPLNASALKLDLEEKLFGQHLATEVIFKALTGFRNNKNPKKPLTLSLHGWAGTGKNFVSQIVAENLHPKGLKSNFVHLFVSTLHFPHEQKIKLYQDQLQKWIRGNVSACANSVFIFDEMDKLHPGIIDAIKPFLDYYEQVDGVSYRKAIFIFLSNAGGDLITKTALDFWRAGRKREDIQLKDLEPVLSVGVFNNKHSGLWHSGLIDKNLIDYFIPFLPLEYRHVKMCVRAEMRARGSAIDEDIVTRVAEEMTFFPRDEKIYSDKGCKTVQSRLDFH
UniProt O60704: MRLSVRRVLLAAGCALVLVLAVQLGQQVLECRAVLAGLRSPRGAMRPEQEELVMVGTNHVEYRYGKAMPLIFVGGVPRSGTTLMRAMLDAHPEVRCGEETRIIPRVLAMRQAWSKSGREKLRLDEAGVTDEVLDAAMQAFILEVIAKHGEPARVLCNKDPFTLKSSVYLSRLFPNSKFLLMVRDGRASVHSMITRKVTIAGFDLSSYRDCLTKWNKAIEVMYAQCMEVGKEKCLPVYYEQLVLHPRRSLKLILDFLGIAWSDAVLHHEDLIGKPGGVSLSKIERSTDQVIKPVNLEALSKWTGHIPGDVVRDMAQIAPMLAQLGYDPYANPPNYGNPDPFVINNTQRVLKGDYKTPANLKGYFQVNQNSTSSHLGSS
UniProt O75648: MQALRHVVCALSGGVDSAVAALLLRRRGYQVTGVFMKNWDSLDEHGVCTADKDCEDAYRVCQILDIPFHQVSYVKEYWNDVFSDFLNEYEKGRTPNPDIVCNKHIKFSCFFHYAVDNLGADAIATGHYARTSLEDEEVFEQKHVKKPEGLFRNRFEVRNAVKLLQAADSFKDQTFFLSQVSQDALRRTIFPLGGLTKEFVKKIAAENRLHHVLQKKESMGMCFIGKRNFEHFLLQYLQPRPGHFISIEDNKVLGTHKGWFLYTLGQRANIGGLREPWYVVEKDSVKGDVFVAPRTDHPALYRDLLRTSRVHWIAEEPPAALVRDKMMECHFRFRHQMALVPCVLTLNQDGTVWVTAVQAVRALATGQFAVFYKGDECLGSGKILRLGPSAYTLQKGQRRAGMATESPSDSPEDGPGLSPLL
UniProt Q02880: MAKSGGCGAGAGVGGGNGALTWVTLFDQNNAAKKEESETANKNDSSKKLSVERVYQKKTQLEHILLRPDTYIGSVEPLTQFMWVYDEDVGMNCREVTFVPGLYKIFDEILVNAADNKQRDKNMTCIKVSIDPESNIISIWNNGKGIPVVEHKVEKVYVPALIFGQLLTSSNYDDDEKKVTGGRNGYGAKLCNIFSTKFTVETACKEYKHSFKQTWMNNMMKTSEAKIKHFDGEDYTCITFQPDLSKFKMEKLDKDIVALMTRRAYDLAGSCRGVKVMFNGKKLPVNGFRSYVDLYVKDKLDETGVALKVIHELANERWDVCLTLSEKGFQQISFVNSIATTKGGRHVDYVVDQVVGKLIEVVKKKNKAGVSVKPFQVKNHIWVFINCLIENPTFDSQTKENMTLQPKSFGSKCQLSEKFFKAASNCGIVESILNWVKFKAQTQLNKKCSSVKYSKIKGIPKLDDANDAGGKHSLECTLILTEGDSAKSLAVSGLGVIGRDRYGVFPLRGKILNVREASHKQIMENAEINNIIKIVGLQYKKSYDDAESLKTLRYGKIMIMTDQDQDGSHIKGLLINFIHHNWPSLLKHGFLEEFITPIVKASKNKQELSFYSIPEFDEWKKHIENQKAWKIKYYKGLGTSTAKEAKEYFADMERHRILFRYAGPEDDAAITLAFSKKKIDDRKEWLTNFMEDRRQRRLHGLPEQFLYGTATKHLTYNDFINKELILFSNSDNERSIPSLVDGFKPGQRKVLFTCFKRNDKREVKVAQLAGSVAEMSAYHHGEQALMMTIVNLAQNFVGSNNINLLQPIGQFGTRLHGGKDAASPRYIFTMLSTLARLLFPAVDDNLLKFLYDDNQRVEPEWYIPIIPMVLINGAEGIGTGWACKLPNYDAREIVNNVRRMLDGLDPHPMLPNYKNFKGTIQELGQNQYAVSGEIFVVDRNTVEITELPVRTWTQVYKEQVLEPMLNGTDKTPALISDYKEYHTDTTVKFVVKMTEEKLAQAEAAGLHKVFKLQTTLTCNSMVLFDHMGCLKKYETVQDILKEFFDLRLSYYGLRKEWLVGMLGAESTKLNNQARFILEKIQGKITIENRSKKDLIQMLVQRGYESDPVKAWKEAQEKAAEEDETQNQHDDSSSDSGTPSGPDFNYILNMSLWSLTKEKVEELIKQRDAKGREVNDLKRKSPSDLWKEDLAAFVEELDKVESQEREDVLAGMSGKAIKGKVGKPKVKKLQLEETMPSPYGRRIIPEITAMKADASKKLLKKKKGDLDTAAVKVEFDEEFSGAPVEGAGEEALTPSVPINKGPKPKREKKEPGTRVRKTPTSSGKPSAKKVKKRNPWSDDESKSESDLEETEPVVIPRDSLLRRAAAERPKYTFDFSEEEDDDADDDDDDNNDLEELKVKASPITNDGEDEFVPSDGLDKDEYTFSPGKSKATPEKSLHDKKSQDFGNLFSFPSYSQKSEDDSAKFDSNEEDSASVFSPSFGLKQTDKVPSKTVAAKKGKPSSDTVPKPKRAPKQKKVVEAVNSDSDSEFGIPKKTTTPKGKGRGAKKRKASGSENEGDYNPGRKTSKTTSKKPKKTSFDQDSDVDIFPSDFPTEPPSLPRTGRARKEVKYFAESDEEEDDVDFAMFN
UniProt Q15654: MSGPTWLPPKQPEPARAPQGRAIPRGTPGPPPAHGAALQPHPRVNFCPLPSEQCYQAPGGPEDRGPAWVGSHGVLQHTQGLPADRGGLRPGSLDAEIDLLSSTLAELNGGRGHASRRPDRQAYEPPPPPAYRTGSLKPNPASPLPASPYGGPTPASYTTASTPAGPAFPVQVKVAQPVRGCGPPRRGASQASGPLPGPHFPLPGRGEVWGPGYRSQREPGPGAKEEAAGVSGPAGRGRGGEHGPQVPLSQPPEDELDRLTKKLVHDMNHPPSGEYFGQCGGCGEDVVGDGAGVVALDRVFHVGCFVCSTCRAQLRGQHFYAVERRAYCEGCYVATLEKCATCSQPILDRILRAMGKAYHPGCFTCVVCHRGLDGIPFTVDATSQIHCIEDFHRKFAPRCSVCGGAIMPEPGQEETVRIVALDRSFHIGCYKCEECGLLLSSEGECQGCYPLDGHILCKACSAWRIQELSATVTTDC
UniProt O14545: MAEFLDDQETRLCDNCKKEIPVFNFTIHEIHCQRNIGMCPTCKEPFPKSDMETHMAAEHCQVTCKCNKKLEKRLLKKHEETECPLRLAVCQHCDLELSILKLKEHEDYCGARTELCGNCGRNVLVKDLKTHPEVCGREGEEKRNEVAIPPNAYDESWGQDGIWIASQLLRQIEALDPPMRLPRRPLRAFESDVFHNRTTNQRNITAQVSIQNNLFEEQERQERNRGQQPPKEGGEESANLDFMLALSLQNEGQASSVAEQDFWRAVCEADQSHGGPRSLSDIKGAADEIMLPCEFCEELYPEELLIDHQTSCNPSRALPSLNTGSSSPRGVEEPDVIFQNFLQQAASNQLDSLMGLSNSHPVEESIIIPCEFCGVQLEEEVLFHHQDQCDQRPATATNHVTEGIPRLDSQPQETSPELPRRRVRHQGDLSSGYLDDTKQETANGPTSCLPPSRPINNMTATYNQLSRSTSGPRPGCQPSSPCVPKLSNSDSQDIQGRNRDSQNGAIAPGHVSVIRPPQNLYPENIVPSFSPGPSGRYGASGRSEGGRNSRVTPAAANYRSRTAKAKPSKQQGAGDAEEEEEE
UniProt Q8WW01: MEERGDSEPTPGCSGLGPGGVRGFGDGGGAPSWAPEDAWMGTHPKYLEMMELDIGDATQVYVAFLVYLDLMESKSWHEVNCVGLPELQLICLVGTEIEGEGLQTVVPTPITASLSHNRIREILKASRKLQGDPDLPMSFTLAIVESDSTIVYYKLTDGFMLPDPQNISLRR
UniProt P67936, whole entry, looked up: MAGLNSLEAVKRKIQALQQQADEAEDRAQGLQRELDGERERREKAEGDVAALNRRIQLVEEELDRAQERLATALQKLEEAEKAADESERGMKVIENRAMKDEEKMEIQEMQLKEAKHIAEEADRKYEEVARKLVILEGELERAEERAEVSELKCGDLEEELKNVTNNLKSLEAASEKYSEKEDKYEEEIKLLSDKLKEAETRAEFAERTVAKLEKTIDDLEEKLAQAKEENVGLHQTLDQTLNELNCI

[2] = compound: C/C(=N\NC(=O)C1=CC(=CC=C1)S(=O)(=O)N2CCOCC2)/C3=C(C=CC(=C3)Cl)O
Method in brief: as §1

[3] = compound: C1=CC(=C(C=C1Cl)C2=NC3=NC=CN=C3C(=N2)NC4=CC=NC=C4)F
Method in brief: as §1

[4] = compound: C1=CC(=CC=C1C2=NC3=C(N2)C=C(C=C3)C(=O)N)OC4=CC=C(C=C4)Cl
Method in brief: as §1

[5] = compound: C1=CC2=C(C=CC(=C2)/C=C\3/C(=O)NC(=NCC4=CC=CS4)S3)N=C1
Method in brief: as §1

[6] = compound: C1=CC2=NC=CN=C2C=C1/C=C/3\C(=O)NC(=O)S3
Method in brief: as §1

[7] = compound: C1=CC=C(C=C1)C2=NC(=C(N2)C3=CC=NC=C3)C4=CC(=C(C=C4)Cl)O
Method in brief: as §1

[8] = compound: C1=CC=C2C(=C1)C3=NNC4=CC=CC(=C43)C2=O
Method in brief: as §1

[9] = compound: C1CCN(C1)C(=O)NC2=CC=CC(=C2)NC3=NC=C(C(=N3)NCCC4=CN=CN4)Br
Method in brief: as §1

[10] = compound: C1CN(CCC1(CC2=CC=C(C=C2)Cl)N)C3=NC=NC4=C3C=CN4
Method in brief: as §1

[11] = compound: C1COCCN1CCN2C3=CC=CC=C3N=C2NC(=O)C4=CC(=CC=C4)[N+](=O)[O-] [IRAK-1-4 Inhibitor I]
Method in brief: as §1

[12] = compound: C=CC(=O)N1CCC[C@@H](n2nc(-c3ccc(Oc4ccccc4)cc3)c3c(N)ncnc32)C1 [ibrutinib]
Method in brief: as §1

[13] = compound: CC(=O)c1cnc2ccc(-c3cc(Cl)c(O)c(Cl)c3)nc2c1N[C@H]1CC[C@H](CN(C)C)CC1
Method in brief: as §1

[14] = compound: CC(C)(C)Cn1c(N)nc2ccc(-c3[nH]c(C(C)(C)C)nc3-c3ccc(F)cc3)nc21 [ralimetinib]
Method in brief: as §1

[15] = compound: CC(C)(O)CC(=O)NCCn1ccc2ncnc(Nc3ccc(Oc4cccc(C(F)(F)F)c4)c(Cl)c3)c21
Method in brief: as §1

[16] = compound: CC(C)C1=C2N=C(C=C(N2N=C1)NCC3=CC=CC=C3)NCCCCCCN
Method in brief: as §1

[17] = compound: CC(C)C[C@@H](C=O)NC(=O)[C@H](CC(C)C)NC(=O)[C@H](CC(C)C)NC(=O)OCc1ccccc1
Method in brief: as §1

[18] = compound: CC(C)N(C[C@H]1O[C@@H](n2cnc3c(N)ncnc32)[C@H](O)[C@@H]1O)[C@H]1C[C@@H](CCc2nc3cc(C(C)(C)C)ccc3[nH]2)C1 [pinometostat]
Method in brief: as §1

[19] = compound: CC1=C(C(CC(=O)N1)C2=CC=C(C=C2)C(F)(F)F)C(=O)NC3=C(C=C4C(=C3)C=NN4)F
Method in brief: as §1

[20] = compound: CC1=C(C2=C(C=C1)C(=O)C3=CC=CC=C3N2CCCN)C
Method in brief: as §1

Measured: log2 fold change

TPD52L2 isoform 7 (UniProt O43399)
inactive: [1] -0.014 | [2] -0.023 | [3] 0 | [4] 0.01 | [5] -0.01 | [6] 0.025 | [7] 0.025 | [8] 0.001 | [9] 0.032 | [10] 0.044 | [11] -0.004 | [12] 0.003 | [13] 0.011 | [14] 0.019 | [15] 0.018 | [16] 0.052 | [17] -0.011 | [18] -0.052 | [19] 0.001 | [20] 0.008

TOP1 (UniProt P11387)
inactive: [1] 0.012 | [2] -0.067 | [3] -0.061 | [4] 0.032 | [5] -0.097 | [6] -0.02 | [7] 0.177 | [8] 0.168 | [9] -0.134 | [10] -0.378 | [11] -0.215 | [12] 0.024 | [13] 0.056 | [14] 0.25 | [15] 0.009 | [16] -0.179 | [17] 0.271 | [18] 0.365 | [19] -0.09 | [20] 0.382

TRIP11 (UniProt Q15643)
inactive: [1] 0.127 | [2] 0.029 | [3] -0.171 | [4] 0.001 | [5] -0.118 | [6] -0.071 | [7] -0.116 | [8] -0.093 | [9] 0.174 | [10] -0.139 | [11] -0.054 | [12] 0.191 | [13] -0.069 | [14] 0.033 | [15] 0.018 | [16] -0.187 | [17] 0.117 | [18] 0.032 | [19] -0.06 | [20] 0.038

TSC22D4 (UniProt Q9Y3Q8)
inactive: [1] -0.048 | [2] 0.024 | [3] 0.008 | [4] -0.075 | [5] -0.009 | [6] 0.056 | [7] -0.011 | [8] -0.007 | [9] -0.032 | [10] 0.003 | [11] 0.038 | [12] 0.026 | [13] -0.053 | [14] -0.024 | [15] 0.003 | [16] 0.062 | [17] 0.028 | [18] -0.002 | [19] 0.001 | [20] -0.027

TRMT6 (UniProt Q9UJA5)
inactive: [1] 0.024 | [2] -0.134 | [3] -0.145 | [4] 0.084 | [5] 0.139 | [6] 0.035 | [7] -0.053 | [8] -0.079 | [9] 0.12 | [10] 0.018 | [11] -0.047 | [12] 0.025 | [13] -0.039 | [14] 0.023 | [15] 0.022 | [16] -0.031 | [17] 0.144 | [18] 0.176 | [19] 0.089 | [20] -0.284

TOR1B (UniProt O14657)
inactive: [1] -0.03 | [2] 0.024 | [3] -0.015 | [4] -0.013 | [5] 0.04 | [6] -0.002 | [7] -0.025 | [8] -0.026 | [9] 0.001 | [10] -0.024 | [11] -0.022 | [12] 0 | [13] 0.008 | [14] -0.088 | [15] 0.007 | [16] -0.066 | [17] 0.055 | [18] 0.006 | [19] 0.052 | [20] -0.004

TPST2 (UniProt O60704)
inactive: [1] 0 | [2] -0.025 | [3] 0.016 | [4] 0.005 | [5] 0.021 | [6] -0.032 | [7] 0.004 | [8] 0.049 | [9] -0.02 | [10] 0.049 | [11] -0.091 | [12] -0.016 | [13] -0.027 | [14] 0.013 | [15] -0.065 | [16] 0 | [17] 0.001 | [18] 0.005 | [19] -0.012 | [20] 0.021

TPCN1 isoform 3 (UniProt Q9ULQ1)
inactive: [1] 0.04 | [2] -0.015 | [3] 0.184 | [4] 0.012 | [5] -0.026 | [6] 0.112 | [7] 0.08 | [8] 0.071 | [9] -0.033 | [10] 0.04 | [11] 0.039 | [12] 0.134 | [13] -0.083 | [14] -0.022 | [15] 0.061 | [16] 0.01 | [17] -0.049 | [18] -0.091 | [19] 0.317 | [20] 0.004

TRMU (UniProt O75648)
inactive: [1] 0.012 | [2] 0.036 | [3] 0.041 | [4] -0.021 | [5] 0.01 | [6] 0.037 | [7] 0.01 | [8] -0.036 | [9] -0.003 | [10] 0.04 | [11] 0.023 | [12] 0.004 | [13] -0.014 | [14] -0.061 | [15] -0.037 | [16] -0.015 | [17] 0.074 | [18] -0.031 | [19] 0.013 | [20] -0.053

TOP2B (UniProt Q02880)
inactive: [1] 0.04 | [2] -0.12 | [3] -0.659 | [4] 0.214 | [5] -0.035 | [6] 0.095 | [7] 0.05 | [8] 0.017 | [9] 0.104 | [10] -0.083 | [11] -0.137 | [12] 0.079 | [13] 0.218 | [14] 0.274 | [15] -0.001 | [16] -0.14 | [17] 0.274 | [18] 0.492 | [19] 0.019 | [20] -0.455

TRIP6 (UniProt Q15654)
inactive: [1] 0.002 | [2] 0.003 | [3] 0.044 | [4] -0.01 | [5] -0.025 | [6] 0.006 | [7] 0.028 | [8] -0.025 | [9] -0.034 | [10] 0.05 | [11] 0.035 | [12] 0.005 | [13] 0.018 | [14] 0.019 | [15] -0.032 | [16] -0.001 | [17] -0.011 | [18] -0.039 | [19] 0.048 | [20] 0.003

TRAFD1 (UniProt O14545)
inactive: [1] -0.004 | [2] -0.017 | [3] 0.075 | [4] 0.016 | [5] -0.102 | [6] 0.029 | [7] -0.034 | [8] -0.036 | [9] -0.038 | [10] 0.057 | [11] -0.009 | [12] 0.037 | [13] 0 | [14] 0.014 | [15] -0.011 | [16] 0.077 | [17] -0.002 | [18] -0.009 | [19] 0.055 | [20] -0.041

Looked up one by one from the list above (2):
TRMT6 (UniProt Q9UJA5)
inactive: [1] 0.024 | [2] -0.134 | [3] -0.145 | [4] 0.084 | [5] 0.139 | [6] 0.035 | [7] -0.053 | [8] -0.079 | [9] 0.12 | [10] 0.018 | [11] -0.047 | [12] 0.025 | [13] -0.039 | [14] 0.023 | [15] 0.022 | [16] -0.031 | [17] 0.144 | [18] 0.176 | [19] 0.089 | [20] -0.284

TOR1B (UniProt O14657)
inactive: [1] -0.03 | [2] 0.024 | [3] -0.015 | [4] -0.013 | [5] 0.04 | [6] -0.002 | [7] -0.025 | [8] -0.026 | [9] 0.001 | [10] -0.024 | [11] -0.022 | [12] 0 | [13] 0.008 | [14] -0.088 | [15] 0.007 | [16] -0.066 | [17] 0.055 | [18] 0.006 | [19] 0.052 | [20] -0.004

More entries follow.

TSEN15 (UniProt Q8WW01)
inactive: [1] 0.026 | [2] 0.082 | [3] 0.034 | [4] 0.045 | [5] 0.083 | [6] 0.029 | [7] 0.039 | [8] -0.156 | [9] -0.058 | [10] 0.057 | [11] -0.084 | [12] -0.005 | [13] -0.018 | [14] -0.101 | [15] -0.068 | [16] -0.062 | [17] 0.012 | [18] 0.054 | [19] -0.007 | [20] 0.057

TOP3B (UniProt O95985)
inactive: [1] -0.012 | [2] -0.048 | [3] -0.198 | [4] 0.018 | [5] 0.008 | [6] -0.001 | [7] -0.01 | [8] -0.002 | [9] -0.004 | [10] -0.125 | [11] -0.027 | [12] -0.008 | [13] 0.009 | [14] 0.15 | [15] 0.009 | [16] -0.119 | [17] 0.174 | [18] 0.202 | [19] 0.014 | [20] 0.028

TPM4 isoform 2 (UniProt P67936)
inactive: [1] -0.03 | [2] 0.07 | [3] 0.073 | [4] -0.025 | [5] -0.272 | [6] 0.003 | [7] -0.019 | [8] 0.02 | [9] 0.031 | [10] 0.066 | [11] 0.048 | [12] 0 | [13] 0.046 | [14] -0.036 | [15] 0.02 | [16] 0.025 | [17] 0.036 | [18] -0.114 | [19] 0.016 | [20] -0.044

TPP2 (UniProt P29144)
inactive: [1] -0.074 | [2] -0.192 | [3] -0.318 | [4] -0.03 | [5] -0.146 | [6] -0.08 | [7] -0.001 | [8] 0.123 | [9] -0.095 | [10] 0.149 | [11] -0.234 | [12] -0.097 | [13] 0.114 | [14] 0.163 | [15] 0.026 | [16] -0.003 | [17] 0.047 | [18] 0.242 | [19] 0.14 | [20] 0.052

Reference: the supplement of paper PMC10849652
